Measurements taken from the supplement of paper PMC10849652.
Some of the results follow.

By UniProt entry, the sequences of proteins in these tests, tags left out. Where a name states a change or a piece, a line headed by the entry shows the natural chain unless it says otherwise.
UniProt Q9BYG3: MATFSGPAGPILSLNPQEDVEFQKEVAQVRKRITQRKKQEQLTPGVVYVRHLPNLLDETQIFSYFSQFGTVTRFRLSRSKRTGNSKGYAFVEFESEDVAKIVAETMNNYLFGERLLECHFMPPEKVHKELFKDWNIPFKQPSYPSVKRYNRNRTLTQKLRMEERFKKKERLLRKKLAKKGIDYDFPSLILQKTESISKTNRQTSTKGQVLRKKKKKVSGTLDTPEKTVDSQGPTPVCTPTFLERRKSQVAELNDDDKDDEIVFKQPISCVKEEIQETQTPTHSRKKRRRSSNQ
UniProt Q9Y6M9, whole entry, looked up: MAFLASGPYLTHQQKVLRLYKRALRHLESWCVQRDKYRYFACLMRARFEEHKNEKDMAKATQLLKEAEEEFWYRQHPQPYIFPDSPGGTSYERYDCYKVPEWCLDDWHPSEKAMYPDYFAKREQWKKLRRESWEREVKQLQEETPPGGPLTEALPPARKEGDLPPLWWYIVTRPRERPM
UniProt O95139, whole entry, looked up: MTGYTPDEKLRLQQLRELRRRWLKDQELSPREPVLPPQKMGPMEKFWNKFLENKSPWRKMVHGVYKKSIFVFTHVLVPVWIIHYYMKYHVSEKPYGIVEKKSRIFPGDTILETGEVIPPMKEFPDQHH
UniProt O76041: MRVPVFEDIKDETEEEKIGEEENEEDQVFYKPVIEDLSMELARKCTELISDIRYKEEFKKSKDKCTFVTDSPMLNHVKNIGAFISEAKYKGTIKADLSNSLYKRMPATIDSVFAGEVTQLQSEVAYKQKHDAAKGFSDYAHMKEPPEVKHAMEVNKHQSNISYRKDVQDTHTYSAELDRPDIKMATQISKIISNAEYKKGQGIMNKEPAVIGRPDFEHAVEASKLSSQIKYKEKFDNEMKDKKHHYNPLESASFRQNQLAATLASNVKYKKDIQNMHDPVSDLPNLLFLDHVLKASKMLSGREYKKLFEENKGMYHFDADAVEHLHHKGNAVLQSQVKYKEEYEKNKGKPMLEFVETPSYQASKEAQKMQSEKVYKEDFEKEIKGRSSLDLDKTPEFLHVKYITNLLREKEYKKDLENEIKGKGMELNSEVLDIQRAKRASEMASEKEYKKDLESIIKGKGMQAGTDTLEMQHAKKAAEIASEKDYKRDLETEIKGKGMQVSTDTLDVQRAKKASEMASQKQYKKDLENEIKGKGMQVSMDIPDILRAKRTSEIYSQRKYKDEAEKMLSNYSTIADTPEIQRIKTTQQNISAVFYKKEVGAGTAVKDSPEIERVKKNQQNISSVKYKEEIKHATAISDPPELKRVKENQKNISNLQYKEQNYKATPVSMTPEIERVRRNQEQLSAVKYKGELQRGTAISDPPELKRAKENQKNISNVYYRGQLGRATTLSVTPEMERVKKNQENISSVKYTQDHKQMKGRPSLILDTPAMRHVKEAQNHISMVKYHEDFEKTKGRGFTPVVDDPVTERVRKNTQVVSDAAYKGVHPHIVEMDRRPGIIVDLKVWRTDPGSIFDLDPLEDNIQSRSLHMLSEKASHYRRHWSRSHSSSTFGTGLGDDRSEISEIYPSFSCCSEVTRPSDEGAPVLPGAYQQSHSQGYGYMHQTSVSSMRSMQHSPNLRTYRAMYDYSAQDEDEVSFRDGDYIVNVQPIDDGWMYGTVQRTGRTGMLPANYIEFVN
UniProt Q9Y697: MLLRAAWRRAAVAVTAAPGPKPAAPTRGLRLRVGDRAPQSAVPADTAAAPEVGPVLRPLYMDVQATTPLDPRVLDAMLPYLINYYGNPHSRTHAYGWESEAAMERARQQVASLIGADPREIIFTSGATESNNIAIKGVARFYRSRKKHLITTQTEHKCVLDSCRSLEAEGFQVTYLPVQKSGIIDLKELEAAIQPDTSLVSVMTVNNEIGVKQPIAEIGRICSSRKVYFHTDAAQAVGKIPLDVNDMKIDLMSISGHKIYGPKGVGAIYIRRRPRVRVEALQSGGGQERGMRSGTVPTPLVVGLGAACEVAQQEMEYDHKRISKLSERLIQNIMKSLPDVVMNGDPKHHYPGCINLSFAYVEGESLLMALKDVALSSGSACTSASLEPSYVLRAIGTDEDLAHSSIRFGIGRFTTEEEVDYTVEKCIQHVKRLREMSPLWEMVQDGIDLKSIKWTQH
UniProt Q9GZT8: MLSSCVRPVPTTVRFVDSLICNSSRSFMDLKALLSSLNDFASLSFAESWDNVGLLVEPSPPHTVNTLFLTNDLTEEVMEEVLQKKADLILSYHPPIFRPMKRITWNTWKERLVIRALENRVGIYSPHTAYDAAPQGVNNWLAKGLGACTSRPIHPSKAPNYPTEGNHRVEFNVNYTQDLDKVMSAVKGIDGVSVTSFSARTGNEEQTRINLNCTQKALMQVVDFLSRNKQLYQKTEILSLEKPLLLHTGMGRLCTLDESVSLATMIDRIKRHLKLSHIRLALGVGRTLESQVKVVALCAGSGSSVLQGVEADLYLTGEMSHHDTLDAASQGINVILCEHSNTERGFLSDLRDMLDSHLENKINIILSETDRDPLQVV
UniProt O95182, whole entry, looked up: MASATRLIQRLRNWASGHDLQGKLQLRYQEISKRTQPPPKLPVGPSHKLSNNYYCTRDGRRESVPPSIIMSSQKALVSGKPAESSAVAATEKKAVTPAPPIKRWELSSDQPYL
UniProt P21359: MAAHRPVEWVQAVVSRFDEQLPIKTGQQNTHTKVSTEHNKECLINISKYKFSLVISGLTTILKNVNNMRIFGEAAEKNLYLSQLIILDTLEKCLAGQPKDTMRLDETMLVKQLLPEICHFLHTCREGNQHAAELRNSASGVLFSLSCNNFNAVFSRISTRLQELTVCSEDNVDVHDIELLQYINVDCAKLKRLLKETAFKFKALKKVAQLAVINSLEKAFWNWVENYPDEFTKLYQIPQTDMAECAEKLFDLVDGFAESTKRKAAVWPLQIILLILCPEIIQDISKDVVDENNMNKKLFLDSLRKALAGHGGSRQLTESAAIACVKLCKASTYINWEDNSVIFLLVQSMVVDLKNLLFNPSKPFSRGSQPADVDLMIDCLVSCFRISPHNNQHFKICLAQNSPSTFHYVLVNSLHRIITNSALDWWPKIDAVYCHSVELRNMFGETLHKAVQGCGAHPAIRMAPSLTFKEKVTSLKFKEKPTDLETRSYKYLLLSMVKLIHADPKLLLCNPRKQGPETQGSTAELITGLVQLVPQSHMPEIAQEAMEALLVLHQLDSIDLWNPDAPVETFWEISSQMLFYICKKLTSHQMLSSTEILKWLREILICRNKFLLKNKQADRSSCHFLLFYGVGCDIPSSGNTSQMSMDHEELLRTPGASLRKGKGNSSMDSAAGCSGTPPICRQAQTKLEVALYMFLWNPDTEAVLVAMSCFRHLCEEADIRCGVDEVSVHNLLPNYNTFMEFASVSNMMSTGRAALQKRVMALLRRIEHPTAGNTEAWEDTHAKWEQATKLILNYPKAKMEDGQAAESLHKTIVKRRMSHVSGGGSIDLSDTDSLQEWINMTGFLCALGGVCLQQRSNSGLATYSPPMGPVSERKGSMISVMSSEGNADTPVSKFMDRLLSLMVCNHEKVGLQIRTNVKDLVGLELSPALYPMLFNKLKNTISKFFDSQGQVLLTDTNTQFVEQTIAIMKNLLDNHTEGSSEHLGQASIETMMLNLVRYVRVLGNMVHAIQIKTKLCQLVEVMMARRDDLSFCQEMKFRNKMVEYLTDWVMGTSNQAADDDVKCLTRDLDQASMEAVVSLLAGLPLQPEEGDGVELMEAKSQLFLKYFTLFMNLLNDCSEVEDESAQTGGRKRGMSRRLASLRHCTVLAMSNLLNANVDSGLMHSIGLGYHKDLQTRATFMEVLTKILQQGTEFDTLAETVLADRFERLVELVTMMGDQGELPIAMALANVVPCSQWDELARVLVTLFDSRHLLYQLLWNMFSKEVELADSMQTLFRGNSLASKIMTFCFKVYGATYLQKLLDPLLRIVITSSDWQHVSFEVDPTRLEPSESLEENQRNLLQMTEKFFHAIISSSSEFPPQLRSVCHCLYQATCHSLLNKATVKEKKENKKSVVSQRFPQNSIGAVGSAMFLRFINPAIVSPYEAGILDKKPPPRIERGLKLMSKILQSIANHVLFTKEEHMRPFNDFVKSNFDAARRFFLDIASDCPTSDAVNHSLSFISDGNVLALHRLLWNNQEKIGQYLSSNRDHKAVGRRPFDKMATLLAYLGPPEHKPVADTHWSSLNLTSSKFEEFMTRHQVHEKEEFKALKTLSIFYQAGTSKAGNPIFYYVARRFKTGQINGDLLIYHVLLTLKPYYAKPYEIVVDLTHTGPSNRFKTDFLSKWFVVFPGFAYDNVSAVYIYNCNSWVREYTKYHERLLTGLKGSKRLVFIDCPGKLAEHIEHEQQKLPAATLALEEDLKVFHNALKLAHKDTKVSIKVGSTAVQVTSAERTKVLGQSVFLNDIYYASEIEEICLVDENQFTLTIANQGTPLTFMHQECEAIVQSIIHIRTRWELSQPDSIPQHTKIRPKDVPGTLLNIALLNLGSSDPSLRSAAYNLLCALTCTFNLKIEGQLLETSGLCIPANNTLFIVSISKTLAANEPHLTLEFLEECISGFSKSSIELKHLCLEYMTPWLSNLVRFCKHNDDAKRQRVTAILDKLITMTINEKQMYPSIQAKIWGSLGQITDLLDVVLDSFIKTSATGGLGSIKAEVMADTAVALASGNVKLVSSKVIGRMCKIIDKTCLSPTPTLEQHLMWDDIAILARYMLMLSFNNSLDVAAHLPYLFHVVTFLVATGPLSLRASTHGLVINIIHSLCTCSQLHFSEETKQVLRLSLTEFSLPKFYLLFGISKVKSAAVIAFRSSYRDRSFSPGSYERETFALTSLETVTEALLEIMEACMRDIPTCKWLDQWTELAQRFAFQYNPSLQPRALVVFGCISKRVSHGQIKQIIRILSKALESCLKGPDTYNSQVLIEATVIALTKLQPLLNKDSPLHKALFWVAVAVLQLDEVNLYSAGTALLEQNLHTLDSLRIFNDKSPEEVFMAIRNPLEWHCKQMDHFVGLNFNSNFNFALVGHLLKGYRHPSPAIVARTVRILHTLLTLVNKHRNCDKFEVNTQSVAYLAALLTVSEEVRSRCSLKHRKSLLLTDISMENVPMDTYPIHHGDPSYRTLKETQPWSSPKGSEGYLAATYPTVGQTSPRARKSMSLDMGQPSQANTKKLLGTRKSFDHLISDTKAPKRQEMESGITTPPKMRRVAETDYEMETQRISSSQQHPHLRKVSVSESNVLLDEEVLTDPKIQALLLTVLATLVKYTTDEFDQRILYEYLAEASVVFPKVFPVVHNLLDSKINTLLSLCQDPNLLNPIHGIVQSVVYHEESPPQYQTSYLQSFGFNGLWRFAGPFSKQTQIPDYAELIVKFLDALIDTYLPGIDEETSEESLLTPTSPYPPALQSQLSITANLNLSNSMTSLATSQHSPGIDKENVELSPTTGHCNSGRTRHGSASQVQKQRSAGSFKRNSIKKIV
UniProt Q8NBF2: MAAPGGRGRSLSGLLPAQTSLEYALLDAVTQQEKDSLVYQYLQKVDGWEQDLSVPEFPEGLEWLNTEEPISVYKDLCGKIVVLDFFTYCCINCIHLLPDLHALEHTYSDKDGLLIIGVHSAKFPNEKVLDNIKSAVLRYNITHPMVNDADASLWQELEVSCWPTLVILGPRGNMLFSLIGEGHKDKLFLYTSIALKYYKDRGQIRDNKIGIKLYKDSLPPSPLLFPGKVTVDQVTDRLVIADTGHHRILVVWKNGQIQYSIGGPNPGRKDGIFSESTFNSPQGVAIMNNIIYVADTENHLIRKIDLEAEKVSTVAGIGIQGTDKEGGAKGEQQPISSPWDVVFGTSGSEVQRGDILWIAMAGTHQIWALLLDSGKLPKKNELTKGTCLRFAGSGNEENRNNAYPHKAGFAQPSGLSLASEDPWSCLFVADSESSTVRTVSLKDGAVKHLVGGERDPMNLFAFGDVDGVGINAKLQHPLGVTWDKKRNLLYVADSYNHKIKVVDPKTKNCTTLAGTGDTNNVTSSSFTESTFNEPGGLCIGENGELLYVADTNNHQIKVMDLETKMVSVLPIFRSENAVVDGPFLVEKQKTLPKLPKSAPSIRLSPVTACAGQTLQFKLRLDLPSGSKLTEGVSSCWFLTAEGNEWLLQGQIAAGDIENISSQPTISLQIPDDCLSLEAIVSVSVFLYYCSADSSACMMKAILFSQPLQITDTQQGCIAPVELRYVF
UniProt Q9UGV2: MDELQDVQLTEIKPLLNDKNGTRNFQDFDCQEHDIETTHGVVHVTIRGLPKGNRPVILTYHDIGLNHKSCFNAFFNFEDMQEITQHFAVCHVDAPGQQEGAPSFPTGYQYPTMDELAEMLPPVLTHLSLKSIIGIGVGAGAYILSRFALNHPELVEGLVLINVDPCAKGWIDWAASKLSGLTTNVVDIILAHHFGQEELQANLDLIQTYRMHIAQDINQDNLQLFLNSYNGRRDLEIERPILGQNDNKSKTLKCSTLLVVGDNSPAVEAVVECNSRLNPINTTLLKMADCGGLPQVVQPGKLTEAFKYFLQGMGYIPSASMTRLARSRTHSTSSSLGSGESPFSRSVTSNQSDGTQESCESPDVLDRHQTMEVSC

Tests used:
Experiment in all cases: log2 fold change, soluble protein after heating vs DMSO (PISA); higher = thermal stabilisation; K562 lysate, 10 uM; active = over 0.2 and 3.5 SD of the protein, either way, in both replicates (recomputed)
[1] = compound: C#Cc1cccc(Nc2ncnc3cc(OCCOC)c(OCCOC)cc23)c1 [erlotinib]
Summary of the method: (§1)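 K562 pellets were dounce-homogenised in PBS pH 7.4 with 1 mM MgCl2, and the crude extract at 1 mg/mL protein was treated with 10 μM compound for 30 min. Aliquots were heated for 3 min across 48°C-58°C, pooled, and brought to 0.5% NP-40 at 4°C; soluble protein was the supernatant after 21,000xg for 90 min. Soluble protein was quantified by TMTpro 16plex LC-MS/MS with channel sums equalised, and reported as log2 fold change in thermal stability against DMSO controls, with values from duplicates.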

[2] = compound: C/C(=N\NC(=O)C1=CC(=CC=C1)S(=O)(=O)N2CCOCC2)/C3=C(C=CC(=C3)Cl)O
Summary of the method: as §1

[3] = compound: C1=CC(=CC=C1C2=NC3=C(N2)C=C(C=C3)C(=O)N)OC4=CC=C(C=C4)Cl
Summary of the method: as §1

[4] = compound: C1=CC2=C(C=CC(=C2)/C=C\3/C(=O)NC(=NCC4=CC=CS4)S3)N=C1
Summary of the method: as §1

[5] = compound: C1=CC2=NC=CN=C2C=C1/C=C/3\C(=O)NC(=O)S3
Summary of the method: as §1

[6] = compound: C1=CC=C(C=C1)C2=NC(=C(N2)C3=CC=NC=C3)C4=CC(=C(C=C4)Cl)O
Summary of the method: as §1

[7] = compound: C1=CC=C2C(=C1)C3=NNC4=CC=CC(=C43)C2=O
Summary of the method: as §1

[8] = compound: C1CCN(C1)C(=O)NC2=CC=CC(=C2)NC3=NC=C(C(=N3)NCCC4=CN=CN4)Br
Summary of the method: as §1

[9] = compound: C1CN(CCC1(CC2=CC=C(C=C2)Cl)N)C3=NC=NC4=C3C=CN4
Summary of the method: as §1

[10] = compound: C1COCCN1CCN2C3=CC=CC=C3N=C2NC(=O)C4=CC(=CC=C4)[N+](=O)[O-] [IRAK-1-4 Inhibitor I]
Summary of the method: as §1

[11] = compound: C=CC(=O)N1CCC[C@@H](n2nc(-c3ccc(Oc4ccccc4)cc3)c3c(N)ncnc32)C1 [ibrutinib]
Summary of the method: as §1

[12] = compound: CC(=O)c1cnc2ccc(-c3cc(Cl)c(O)c(Cl)c3)nc2c1N[C@H]1CC[C@H](CN(C)C)CC1
Summary of the method: as §1

[13] = compound: CC(C)(C)Cn1c(N)nc2ccc(-c3[nH]c(C(C)(C)C)nc3-c3ccc(F)cc3)nc21 [ralimetinib]
Summary of the method: as §1

[14] = compound: CC(C)(O)CC(=O)NCCn1ccc2ncnc(Nc3ccc(Oc4cccc(C(F)(F)F)c4)c(Cl)c3)c21
Summary of the method: as §1

[15] = compound: CC(C)C1=C2N=C(C=C(N2N=C1)NCC3=CC=CC=C3)NCCCCCCN
Summary of the method: as §1

[16] = compound: CC1=C(C(CC(=O)N1)C2=CC=C(C=C2)C(F)(F)F)C(=O)NC3=C(C=C4C(=C3)C=NN4)F
Summary of the method: as §1

[17] = compound: CC1=C(C2=C(C=C1)C(=O)C3=CC=CC=C3N2CCCN)C
Summary of the method: as §1

[18] = compound: CC1=C(C=C(C=C1)NC(=O)C2=CC(=CC=C2)C(C)(C)C#N)NC3=CC4=C(C=C3)N=CN(C4=O)C
Summary of the method: as §1

[19] = compound: CC1=C(C=C(C=C1)NC(=O)C2=CC(=CC=C2)N(C)C)NC(=O)C3=CC=C(C=C3)O
Summary of the method: as §1

[20] = compound: CC1=CC=C(C=C1)SC2=C3C=C(SC3=CN=C2)C(=O)N
Summary of the method: as §1

Measured: log2 fold change

NIFK (UniProt Q9BYG3)
inactive: [1] 0 | [2] -0.05 | [3] -0.01 | [4] -0.009 | [5] 0.032 | [6] 0.038 | [7] 0.01 | [8] -0.02 | [9] -0.005 | [10] -0.042 | [11] 0.02 | [12] -0.039 | [13] 0.022 | [14] 0.002 | [15] -0.001 | [16] 0.016 | [17] -0.035 | [18] -0.005 | [19] 0.016 | [20] 0.032

NDUFB9 (UniProt Q9Y6M9)
inactive: [1] -0.046 | [2] 0.15 | [3] -0.076 | [4] 0.01 | [5] 0.015 | [6] -0.002 | [7] 0.031 | [8] 0.031 | [9] -0.068 | [10] -0.005 | [11] 0.039 | [12] -0.027 | [13] 0.018 | [14] -0.003 | [15] 0.007 | [16] 0.027 | [17] 0.015 | [18] -0.012 | [19] -0.02 | [20] -0.011

NDUFB6 (UniProt O95139)
inactive: [1] -0.01 | [2] 0.012 | [3] 0 | [4] 0 | [5] 0.016 | [6] -0.004 | [7] -0.025 | [8] -0.022 | [9] -0.002 | [10] 0.023 | [11] -0.036 | [12] 0.001 | [13] 0.014 | [14] -0.092 | [15] -0.006 | [16] -0.014 | [17] -0.009 | [18] 0.057 | [19] 0.026 | [20] -0.038

Reprinted from above (2 entries):
NIFK (UniProt Q9BYG3)
inactive: [1] 0 | [2] -0.05 | [3] -0.01 | [4] -0.009 | [5] 0.032 | [6] 0.038 | [7] 0.01 | [8] -0.02 | [9] -0.005 | [10] -0.042 | [11] 0.02 | [12] -0.039 | [13] 0.022 | [14] 0.002 | [15] -0.001 | [16] 0.016 | [17] -0.035 | [18] -0.005 | [19] 0.016 | [20] 0.032

NDUFB9 (UniProt Q9Y6M9)
inactive: [1] -0.046 | [2] 0.15 | [3] -0.076 | [4] 0.01 | [5] 0.015 | [6] -0.002 | [7] 0.031 | [8] 0.031 | [9] -0.068 | [10] -0.005 | [11] 0.039 | [12] -0.027 | [13] 0.018 | [14] -0.003 | [15] 0.007 | [16] 0.027 | [17] 0.015 | [18] -0.012 | [19] -0.02 | [20] -0.011

Following part

NEK1 isoform 3 (UniProt Q96PY6)
inactive: [1] 0.03 | [2] -0.076 | [3] -0.011 | [4] 0 | [5] -0.04 | [6] 0.031 | [7] 0.006 | [8] 0.004 | [9] 0.017 | [10] 0.012 | [11] 0.038 | [12] 0.045 | [13] 0.034 | [14] -0.061 | [15] -0.02 | [16] -0.016 | [17] -0.002 | [18] 0.014 | [19] -0.01 | [20] 0.05

NFATC1 (UniProt O95644)
inactive: [1] -0.002 | [2] -0.431 | [3] 0.045 | [4] -0.04 | [5] -0.02 | [6] 0.065 | [7] 0.009 | [8] 0.044 | [9] 0.092 | [10] 0.077 | [11] 0.011 | [12] 0.06 | [13] -0.004 | [14] -0.067 | [15] -0.038 | [16] 0.031 | [17] -0.047 | [18] 0.094 | [19] -0.015 | [20] -0.052

NEBL isoform 2 (UniProt O76041)
inactive: [1] 0 | [2] 0.081 | [3] 0.045 | [4] 0.012 | [5] 0.016 | [6] 0.015 | [7] 0.003 | [8] -0.007 | [9] -0.006 | [10] -0.005 | [11] -0.04 | [12] 0.015 | [13] -0.038 | [14] 0.027 | [15] 0.027 | [16] -0.012 | [17] -0.028 | [18] 0 | [19] 0.011 | [20] -0.013

NFS1 (UniProt Q9Y697)
inactive: [1] 0.003 | [2] 0.014 | [3] 0.025 | [4] 0.014 | [5] 0.002 | [6] -0.004 | [7] -0.017 | [8] 0.014 | [9] 0.042 | [10] 0.017 | [11] 0.011 | [12] -0.004 | [13] 0.013 | [14] -0.041 | [15] -0.002 | [16] -0.016 | [17] -0.026 | [18] 0.017 | [19] -0.025 | [20] 0.007

NIF3L1 (UniProt Q9GZT8)
inactive: [1] -0.018 | [2] -0.07 | [3] 0.009 | [4] 0.008 | [5] 0.028 | [6] 0.016 | [7] -0.001 | [8] 0.007 | [9] 0.017 | [10] 0.033 | [11] 0.024 | [12] -0.009 | [13] -0.002 | [14] -0.015 | [15] -0.016 | [16] 0.032 | [17] -0.018 | [18] 0.018 | [19] -0.002 | [20] -0.003

NDUFA7 (UniProt O95182)
inactive: [1] -0.024 | [2] 0.016 | [3] -0.035 | [4] 0.011 | [5] 0.007 | [6] -0.022 | [7] 0.027 | [8] -0.035 | [9] -0.024 | [10] 0.014 | [11] -0.006 | [12] 0.015 | [13] -0.005 | [14] -0.05 | [15] -0.025 | [16] -0.02 | [17] -0.01 | [18] -0.016 | [19] 0.024 | [20] 0.001

NEK7 (UniProt Q8TDX7)
inactive: [1] -0.004 | [2] 0.042 | [3] -0.083 | [4] 0 | [5] 0.01 | [6] 0.053 | [7] 0.103 | [8] 0.011 | [9] -0.005 | [10] 0.032 | [11] 0.041 | [12] -0.041 | [13] 0.063 | [14] -0.016 | [15] 0.034 | [16] -0.015 | [17] -0.048 | [18] -0.043 | [19] 0.053 | [20] 0.002

NECAP2 (UniProt Q9NVZ3)
inactive: [1] 0.017 | [2] -0.017 | [3] 0.014 | [4] -0.022 | [5] -0.002 | [6] 0.033 | [7] 0.061 | [8] 0.022 | [9] 0.02 | [10] -0.005 | [11] -0.005 | [12] -0.003 | [13] -0.014 | [14] 0.023 | [15] 0.023 | [16] -0.004 | [17] 0.001 | [18] 0.032 | [19] -0.024 | [20] 0.008

NF1 (UniProt P21359)
inactive: [1] 0.072 | [2] -0.031 | [3] -0.02 | [4] -0.056 | [5] -0.008 | [6] -0.003 | [7] -0.089 | [8] 0.017 | [9] 0 | [10] 0.023 | [11] 0.018 | [12] 0.02 | [13] 0.07 | [14] -0.03 | [15] -0.009 | [16] 0.004 | [17] -0.02 | [18] 0.041 | [19] 0.007 | [20] -0.032

NHLRC2 (UniProt Q8NBF2)
inactive: [1] 0.003 | [2] -0.022 | [3] -0.006 | [4] -0.012 | [5] -0.018 | [6] 0.012 | [7] 0.009 | [8] -0.009 | [9] 0.011 | [10] -0.006 | [11] -0.039 | [12] 0 | [13] 0.013 | [14] -0.02 | [15] 0.027 | [16] -0.021 | [17] 0.091 | [18] 0.013 | [19] 0.026 | [20] 0.024

NDRG3 (UniProt Q9UGV2)
inactive: [1] 0.01 | [2] -0.008 | [3] 0.018 | [4] -0.012 | [5] -0.019 | [6] 0.003 | [7] -0.009 | [8] -0.004 | [9] 0.018 | [10] 0.011 | [11] -0.017 | [12] -0.003 | [13] 0.012 | [14] 0 | [15] 0.003 | [16] 0.01 | [17] -0.005 | [18] 0.018 | [19] -0.015 | [20] -0.001

NDUFAF1 (UniProt Q9Y375)
inactive: [1] -0.048 | [2] -0.012 | [3] -0.006 | [4] 0.01 | [5] 0.06 | [6] -0.002 | [7] -0.057 | [8] 0 | [9] 0.015 | [10] -0.007 | [11] -0.022 | [12] 0.002 | [13] -0.008 | [14] -0.034 | [15] -0.036 | [16] 0.046 | [17] 0.018 | [18] 0.091 | [19] 0.023 | [20] -0.027

NELFCD (UniProt Q8IXH7)
inactive: [1] 0.034 | [2] 0.015 | [3] 0.007 | [4] 0.031 | [5] -0.019 | [6] -0.019 | [7] -0.044 | [8] -0.004 | [9] 0.023 | [10] -0.036 | [11] 0.039 | [12] 0.013 | [13] 0.019 | [14] -0.043 | [15] 0.009 | [16] 0.007 | [17] 0.013 | [18] 0.011 | [19] 0.049 | [20] -0.02
